# Test results published in the supplement of paper PMC8256030.
# Where “and” joins values, the source holds several entries; their conditions need not be identical. Identical values can stand only once. This is one part of the list. Single values are uncertain here, since repeats match poorly.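 HEK293T cells were given each compound shortly before transfection with a reporter in which red mCherry is followed by the SARS-CoV-2 frameshift element and then GFP in the −1 frame, so GFP appears only after frameshifting.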
# Tested on: HEK293T
# Test: percent viability (nuclei count) relative to control; higher = more viable cells
# Settings: 10 µM; 24 h
row,Compound,percent viability
1,O=C(O)c1ccc(-n2nc(-c3ccccc3O)nc2-c2ccccc2O)cc1 [deferasirox],146%
2,O=C(Nc1ccc([N+](=O)[O-])cc1Cl)c1cc(Cl)ccc1O [niclosamide],381%
3,O=C1CC[C@@H](C(=O)N2CSC[C@H]2C(=O)O)N1 [pidotimod],201%
4,O=C(COc1ccc(Cl)cc1)N1CCN(Cc2ccc3c(c2)OCO3)CC1 [fipexide],321%
5,N=C(N)NC(=N)N1CCOCC1 [moroxydine],137%
6,CC(C)(Oc1ccc(C(O)c2ccc(Cl)cc2)cc1)C(=O)O (stereo not given) [fenirofibrate],390%
7,NC(CO)C(=O)NNCc1ccc(O)c(O)c1O (stereo not given) [benserazide],350% and 251%
8,CCOC(=O)C1=C(COCCN)NC(C)=C(C(=O)OC)C1c1ccccc1Cl (stereo not given) [amlodipine],182% and 436%
9,Cc1cc(NC(=O)/C(C#N)=C(\O)C2CC2)ccc1C(F)(F)F [laflunimus],235%
10,CNC(=O)[C@H](Cc1c[nH]c2ccccc12)NC(=O)[C@@H](CC(=O)NO)CC(C)C [ilomastat],284%
11,O=C(N/N=C/c1ccc([N+](=O)[O-])o1)c1ccc(O)cc1 [nifuroxazide],200%
12,Nc1cc(Cl)c(N=C2NCCN2)c(Cl)c1 [apraclonidine],269%
13,CC/C=C\C/C=C\C/C=C\C/C=C\C/C=C\C/C=C\CCC(=O)O [doconexent],128%
14,CC(C)(Oc1ccc(Cl)cc1)C(=O)O [calcium clofibrate],219%
15,CC(C)CCC[C@@H](C)[C@H]1CC[C@H]2[C@@H]3CC=C4C[C@@H](O)CC[C@]4(C)[C@H]3CC[C@]12C,138%
16,CN1CCC(=C2c3ccccc3C=Cc3ccccc32)CC1 [cyproheptadine],353% and 263%
17,CC(N)C(=O)OC(C)(C)Cc1ccc(Cl)cc1 (stereo not given) [alaproclate],199%
18,CCc1nn(CCCN2CCN(c3cccc(Cl)c3)CC2)c(=O)n1CCOc1ccccc1 [nefazodone],211%
19,CC(N)C12CC3CC(CC(C3)C1)C2 (stereo not given) [rimantadine],236%
20,CC(=O)Nc1ccccc1,158%

row,Compound,percent viability
1,CC(=O)N(O)CCCCCNC(=O)CCC(=O)N(O)CCCCCNC(=O)CCC(=O)N(O)CCCCCN [deferoxamine],175%
2,NC(Cc1ccc(Cl)cc1)C(=O)O (stereo not given) [fenclonine],29%
3,CC(C(=O)O)c1ccc(N2CC=CC2)c(Cl)c1 (stereo not given) [pirprofen],86.6%
4,CN(C)CCCN1c2ccccc2CCc2ccc(Cl)cc21 [clomipramine],396%
5,C=CC(N)CCC(=O)O (stereo not given) [vigabatrin],238%
6,CCN[C@H]1C[C@H](C)S(=O)(=O)c2sc(S(N)(=O)=O)cc21 [dorzolamide],250%
7,CC(=O)CCCCn1c(=O)c2c(ncn2C)n(C)c1=O [pentoxifylline],295% and 253%
8,CCCCN(CCCC)C(=O)CN1C[C@H](c2ccc3c(c2)OCO3)[C@@H](C(=O)O)[C@@H]1c1ccc(OC)cc1 [atrasentan],128%
9,C=CC1=C(C(=O)O)N2C(=O)[C@@H](NC(=O)/C(=N\OCC(=O)O)c3csc(N)n3)[C@H]2SC1 [cefixime],134%
10,Cc1cccn2c(=O)c(-c3nnn[nH]3)cnc12 [pemirolast],69.5%
11,CN1CCCCC1CCN1c2ccccc2Sc2ccc([S+](C)[O-])cc21 (stereo not given) [Mesoridazine besylate],264%
12,COc1ccc(/C=C/C(=O)OCCC(C)C)cc1 [amiloxate],46.6%
13,CN[C@@H]1[C@H](O)[C@H](NC)[C@H]2O[C@@]3(O)C(=O)C[C@@H](C)O[C@H]3O[C@@H]2[C@H]1O [spectinomycin],102%
14,c1ccc(CN(CC2=NCCN2)c2ccccc2)cc1 [antazoline],382%
15,CC(C)(C)NCC(O)COc1cc(Cl)ccc1Cl (stereo not given) [cloranolol],270%
16,CN1CCCC(CC2c3ccccc3Sc3ccccc32)C1 (stereo not given) [metixene],336%
17,CC1=C(C(=O)O)N2C(=O)[C@@H](NC(=O)[C@H](N)c3ccccc3)[C@H]2SC1 [cefalexin],99.8%
18,C/C(=C(\CCOP(=O)(O)O)SC(=O)c1ccccc1)N(C=O)Cc1cnc(C)nc1N [benfotiamine],328%
19,c1ccc2oc(-c3ccncc3)cc2c1 [pyridarone],203%
20,NS(=O)(=O)c1cc2c(cc1Cl)NC(c1ccccc1)NC2=O (stereo not given) [fenquizone],94.3%
